In PMC6925144, “A prospective compound screening contest identified broader inhibitors for Sirtuin 1” (Scientific Reports, 2019):
Whole data set: some 3,200 compounds, median “TSA(without NAD+) / Primary screening (TSA) / delta Tm (K)” near -0.07, cut for the highest 2% near 0.37. Some of the results follow.

By UniProt entry, the sequences of proteins in these tests, tags left out. Residues count along the entry.
UniProt Q96EB6, 2-747 limits assumed: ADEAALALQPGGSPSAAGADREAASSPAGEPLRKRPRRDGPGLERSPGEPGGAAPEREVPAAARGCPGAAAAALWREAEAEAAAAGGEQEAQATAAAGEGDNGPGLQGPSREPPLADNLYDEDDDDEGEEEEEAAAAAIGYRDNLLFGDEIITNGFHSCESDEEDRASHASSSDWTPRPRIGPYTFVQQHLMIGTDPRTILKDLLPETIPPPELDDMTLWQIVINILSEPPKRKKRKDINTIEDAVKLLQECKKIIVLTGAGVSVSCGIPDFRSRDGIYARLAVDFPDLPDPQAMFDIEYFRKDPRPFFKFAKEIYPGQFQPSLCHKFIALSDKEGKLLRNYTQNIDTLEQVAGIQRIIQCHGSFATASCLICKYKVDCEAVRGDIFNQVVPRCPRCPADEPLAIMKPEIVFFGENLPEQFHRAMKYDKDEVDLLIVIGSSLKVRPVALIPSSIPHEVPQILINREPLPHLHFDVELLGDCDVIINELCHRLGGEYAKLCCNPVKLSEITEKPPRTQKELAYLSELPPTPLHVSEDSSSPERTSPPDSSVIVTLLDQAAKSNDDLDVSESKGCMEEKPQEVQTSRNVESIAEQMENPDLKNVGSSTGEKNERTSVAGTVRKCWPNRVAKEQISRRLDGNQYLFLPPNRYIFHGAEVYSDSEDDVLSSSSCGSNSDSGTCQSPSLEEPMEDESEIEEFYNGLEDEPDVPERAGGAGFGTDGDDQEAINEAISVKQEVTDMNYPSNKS

Target: NAD-dependent deacetylase Sirtuin 1 (human, UniProt Q96EB6)
Assay: primary screen, delta tm
Parameters: single well (n = 1)
Conditions: 10 µM
Outline: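 Thermal shift of Sirtuin 1 measured without NAD+, compound at 10 µM (n = 1); value is ΔTm, with hits defined as ΔTm > 0.45 K or < −1.5 K. Hits retested at 5, 10, 20 µM (n = 4) and counterscreened on bovine carbonic anhydrase and ABL1 SH2 domain.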

Structure (SMILES)	TSA(without NAD+) / Primary screening (TSA) / delta Tm (K)
Cc1ccc(-c2nc(C)sc2CC(=O)Nc2ccc(C(N)=O)cc2)cc1	-0.12
COc1cccc(C2(C)NC(=O)N(CC(=O)Nc3ccc(C(N)=O)cc3)C2=O)c1 (stereo not drawn)	0.22
O=C(NNC(=O)c1cnccn1)c1ccc(OCc2ccccc2)cc1	0.07
Cc1ccc(Cn2c(=O)c3ccccc3n3c(SCC4CCCO4)nnc23)cc1 (stereo not drawn)	-0.21
CC(C)C(=O)NCCNC(=O)Nc1cc(C(N)=O)ccc1F	-0.24
Cc1cccn2c(=O)c3cc(C(=O)N4CCc5ccccc54)sc3nc12	0.03
Cn1cc(C(=O)OCc2ccc(C(=O)N3CCCC3)cc2)c2ccccc21	-0.34
CC(C)CNc1nnc(S)s1	0.06
COc1ccc(N(C)S(=O)(=O)c2cccc(C(=O)Nc3sc4c(c3C(N)=O)CCC(C)C4)c2)cc1 (stereo not drawn)	0.08
CN(CCC(=O)N1CCc2ccccc21)Cc1ccc2ccccc2c1	0.08
Cc1ccc(-c2cc(-c3ccccc3)c3cc([N+](=O)[O-])ccc3n2)cc1	0.03
CN(C)c1ccc(NC(=O)c2cccc(S(=O)(=O)N(C)c3cccc(Cl)c3)c2)cc1	0.27
CS(=O)(=O)NCC(=O)O	-0.04
N#Cc1ccc(NC(=O)CSc2nnc(NCc3ccco3)s2)cc1	0.09
O=c1[nH]c(=O)c2[nH]c(=O)[nH]c2[nH]1	0.02
O=C(c1cn(Cc2ccccc2)nc1-c1cccs1)N1CCCC1	-0.01
COc1ccc(C(=O)NC2CCCCCC2C(N)=O)c(F)c1 (stereo not drawn)	0.15
CC(N)CC(=O)O (stereo not drawn)	0.02
CC(C)(C)c1ccccc1NC(=O)C1CC(=O)N(Cc2ccccc2)C1 (stereo not drawn)	-0.18
Cc1ccc(C)c(C(=O)Nc2cccc(S(=O)(=O)N3CCCCCC3)c2)c1	-0.18

2 records drawn at random from those above:
Structure (SMILES)	TSA(without NAD+) / Primary screening (TSA) / delta Tm (K)
CC(C)CNc1nnc(S)s1	0.06
O=c1[nH]c(=O)c2[nH]c(=O)[nH]c2[nH]1	0.02

Further entries follow:

Structure (SMILES)	TSA(without NAD+) / Primary screening (TSA) / delta Tm (K)
CS(=O)(=O)NCCSc1nnc(NCC2CCCO2)s1 (stereo not drawn)	-0.03
Cc1ccc(-c2sc(-c3ccccc3)nc2CC(=O)NC2(C)CCS(=O)(=O)C2)cc1 (stereo not drawn)	-0.13
CC(=O)Nc1ccc(C(=O)COC(=O)c2ccccc2-c2ncc(-c3ccccc3)o2)cc1	-0.12
COC(=O)c1cc(OC)ccc1NC(=O)Cn1c(-c2ccc(F)cc2)c(C)sc1=O	-0.18
CC1CCN(CCNC(=O)NC(C)c2ccc3c(c2)CC(=O)N3)CC1 (stereo not drawn)	-0.02
Cc1[nH]nc(C(N)=O)c1NC(=O)Cn1ccc2ccc(Cl)cc21	-0.18
O=C(CN1CCN(C(=O)c2ccc(-c3cc(Cl)ccc3Cl)o2)CC1)Nc1ccccc1Cl	-0.14
Cc1ccc(S(=O)(=O)NCC(=O)NCC(=O)OCC(=O)c2ccc(C3CCCCC3)cc2)cc1C	0.19
CCCOc1ccc(C(=O)C2=C(O)C(=O)N(CCCN3CCOCC3)C2c2ccco2)cc1 (stereo not drawn)	0.12
Cc1ccc(NC(=O)c2cccc(S(=O)(=O)N(C)c3ccc(C)cc3)c2)cc1	0.45
C=CCOc1ccc(C2C(C(=O)c3cccs3)=C(O)C(=O)N2CCCN2CCOCC2)cc1 (stereo not drawn)	0.02
COCc1noc(CN2CCCCC2c2cc3ccccc3[nH]2)n1 (stereo not drawn)	-0.24
O=C(CCc1cccnc1)Nc1ccccc1N1CCc2ccccc2C1	-0.31
N#CC1=C(N)Oc2c(ccc3ccccc23)C1c1ccccc1F (stereo not drawn)	-0.18
CC(C)Oc1ccc(C(=O)C2=C(O)C(=O)N(CCCN3CCOCC3)C2c2ccccc2F)cc1 (stereo not drawn)	-0.23
CCOCCn1ccc2cc(OC)c(F)cc2c1=O	-0.33
CCOc1ccc(C2C(C(=O)c3ccco3)=C(O)C(=O)N2CCCN2CCOCC2)cc1OCC (stereo not drawn)	-0.08
Cc1noc(C)c1CC(=O)Nc1ccccc1-c1nc(C(C)C)n[nH]1	-0.21
NCCN1CCNCC1	-0.24
CCC(=O)Nc1cccc(C(=O)NNC(=O)c2nc(-c3ccccc3)n(-c3ccccc3)n2)c1	-0.02

Structure (SMILES)	TSA(without NAD+) / Primary screening (TSA) / delta Tm (K)
NC(=O)c1ccc(OCC(=O)NCC2CN(Cc3ccccc3)CCO2)cc1 (stereo not drawn)	-0.02
C=CCOc1ccc(C(=O)C2=C(O)C(=O)N(CCN3CCOCC3)C2c2cccs2)cc1 (stereo not drawn)	-0.24
O=C(CSc1nnc(-c2ccccc2Br)[nH]1)NCCN1C(=O)CSC1=O	0.09
COc1ccc(-c2noc(CCC(=O)OCc3cc(=O)oc4cc(NC(C)=O)ccc34)n2)cc1	0.15
COc1ccc(NC(=O)COc2ccc(C(=O)NCC34CC5CC(CC(C5)C3)C4)cc2OC)cc1	-0.34
Nn1c(S)nnc1COc1ccc(F)cc1	-0.12
O=C1NCCN(C(=O)c2ccc[nH]2)C1c1ccc(C(F)(F)F)cc1 (stereo not drawn)	-0.28
Fc1ccc(-c2csc3ncnc(N4CCN(c5nccs5)CC4)c23)cc1	-0.14
NCC(=O)OCc1ccccc1	-0.12
CC(C)(O)Cn1cnc2c(N3CCOCC3)ncnc21	0.02
Cc1ccc(NC(=O)COC(=O)C23CC4CC(C2)CC(c2ccccc2)(C4)C3)cc1S(=O)(=O)N(C)C	0.12
Sc1ncc[nH]1	0.03
Cc1nc2sccn2c1CNCc1ccccc1	-0.01
Cc1cc(=O)oc2cc(NC(=O)c3cccc(S(=O)(=O)N(C)c4ccccc4)c3)ccc12	-0.17
CC(=O)N1N=C(c2ccccc2)CC1c1ccc(Br)cc1 (stereo not drawn)	-0.02
COC(=O)c1ccc(C2NC(=O)NC3=C2C(=O)N(CCO)C3)cc1 (stereo not drawn)	0.07
CCCCc1ccc(NC(=O)c2cccc(S(=O)(=O)N(C)c3cccc(Cl)c3)c2)cc1	0.58
CC(C)(C)NCCN	-0.05
Cc1nn(C)c2ncc(S(=O)(=O)N(C)c3cccc(C#N)c3)cc12	-0.12
Nc1cc(C(F)(F)F)ccc1O	-0.88
